Results are given in words; binding and its absence hold for the method and conditions named. In cells and extracts the contact can be indirect.
Columns and labels:
Test in all cases: co-IP; MDA-MB-231 cells transiently transfected with myc-tagged Ahsa1 constructs; lysates (50 mM HEPES pH 7.4, 100 mM potassium acetate, 5 mM MgCl2, 20 mM sodium molybdate, 1% TX-100, 20% glycerol) incubated with anti-c-Myc magnetic beads at 4 °C; blots for endogenous Hsp90 and glucocorticoid receptor
[1] = biological target: Ahsa1^Δ20 with a C-terminal myc tag (human) (UniProt O95433)
[2] = biological target: Ahsa1^Δ27 with a C-terminal myc tag (human) (UniProt O95433)
[3] = biological target: Ahsa1^E67K with a C-terminal myc tag (human) (UniProt O95433)

Chains of the proteins cited; added tags and fusions are not shown. Lines headed by an entry give the natural chain unless they say otherwise; changes in a name come on top. A line that says so, or that is headed by a name, gives the form on record, which may keep a tag or linker. Residues count along the entry.
UniProt O95433: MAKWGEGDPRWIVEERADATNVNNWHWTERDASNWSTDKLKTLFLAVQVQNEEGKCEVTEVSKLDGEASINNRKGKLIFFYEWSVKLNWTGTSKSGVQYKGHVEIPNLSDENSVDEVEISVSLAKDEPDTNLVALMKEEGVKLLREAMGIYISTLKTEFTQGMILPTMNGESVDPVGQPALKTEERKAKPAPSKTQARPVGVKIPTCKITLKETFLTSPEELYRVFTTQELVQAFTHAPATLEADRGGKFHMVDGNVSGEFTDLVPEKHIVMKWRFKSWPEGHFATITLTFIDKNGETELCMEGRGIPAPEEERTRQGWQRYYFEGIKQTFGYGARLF
Ahsa1^Δ20 with a C-terminal myc tag: residues 21-338 of O95433
Ahsa1^Δ27 with a C-terminal myc tag: residues 28-338 of O95433
UniProt P04150: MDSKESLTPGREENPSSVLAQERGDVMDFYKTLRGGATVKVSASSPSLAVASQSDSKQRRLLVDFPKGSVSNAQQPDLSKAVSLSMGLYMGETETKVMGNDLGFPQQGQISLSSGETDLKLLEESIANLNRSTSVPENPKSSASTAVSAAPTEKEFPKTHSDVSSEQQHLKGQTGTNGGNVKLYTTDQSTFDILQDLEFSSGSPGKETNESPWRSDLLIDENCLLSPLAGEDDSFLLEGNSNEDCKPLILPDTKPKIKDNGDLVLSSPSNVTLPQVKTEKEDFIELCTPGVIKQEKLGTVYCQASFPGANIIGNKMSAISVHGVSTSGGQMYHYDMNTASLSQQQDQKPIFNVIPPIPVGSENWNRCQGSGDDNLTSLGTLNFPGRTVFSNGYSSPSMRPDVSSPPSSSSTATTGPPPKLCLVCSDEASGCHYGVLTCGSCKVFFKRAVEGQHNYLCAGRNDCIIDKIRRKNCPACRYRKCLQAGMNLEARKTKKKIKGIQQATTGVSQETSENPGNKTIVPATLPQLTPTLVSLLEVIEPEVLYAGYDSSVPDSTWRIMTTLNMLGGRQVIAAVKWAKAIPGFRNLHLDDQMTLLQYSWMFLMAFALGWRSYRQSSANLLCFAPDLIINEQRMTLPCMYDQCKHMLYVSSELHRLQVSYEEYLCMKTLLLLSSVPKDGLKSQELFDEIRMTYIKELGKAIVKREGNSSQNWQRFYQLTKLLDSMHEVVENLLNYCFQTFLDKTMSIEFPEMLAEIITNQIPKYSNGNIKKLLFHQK

binding [1]: no binding | binding [2]: no binding | binding [3]: no binding
Substance: glucocorticoid hormone receptor (endogenous, MDA-MB-231 cells) (from UniProt P04150 1-777)

From article PMC11316058
